Publication PMC2715101, “Dimerization of Translationally Controlled Tumor Protein Is Essential For Its Cytokine-Like Activity” (PLoS ONE, 2009)
Results are given in words; binding and its absence hold for the method and conditions named.

T1: Del-N35TCTP (residues 35-172) (rat) (UniProt P63029)
T1 sequence: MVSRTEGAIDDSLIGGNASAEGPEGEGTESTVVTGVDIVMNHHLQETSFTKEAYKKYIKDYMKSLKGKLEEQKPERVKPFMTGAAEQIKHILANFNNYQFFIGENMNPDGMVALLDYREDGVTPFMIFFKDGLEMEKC


Columns and labels:
[1] = target: Del-C112TCTP (residues 1-112) (rat) (UniProt P63029); assay: non-reducing SDS-PAGE; purified proteins boiled with or without β-ME, 15% gel, coomassie brilliant blue; dimer by intermolecular disulfide bond; both purified
[2] = target: T1, Del-N35TCTP (residues 35-172) (rat); assay: cross-linking; sulfhydryl crosslinkers BMOE (five-fold molar excess, 2 h) or BM(PEO)3 (five-fold molar excess, 1 h), room temperature, proteins first reduced with 20 mM DTT; each protein alone and their 1/2:1/2 molar mixture; reducing SDS-PAGE; both purified

Row | Binder | binding [1] | binding [2]
1 | Del-C112TCTP (residues 1-112) (domain or fragment, UniProt P63029 1-112) MIIYRDLISHDELFSDIYKIREIADGLCLEVEGKMVSRTEGAIDDSLIGGNASAEGPEGEGTESTVVTGVDIVMNHHLQETSFTKEAYKKYIKDYMKSLKGKLEEQKPERVK | no binding | 
2 | rat recombinant TCTP (RrTCTP) (protein, UniProt P63029 1-172) MIIYRDLISHDELFSDIYKIREIADGLCLEVEGKMVSRTEGAIDDSLIGGNASAEGPEGEGTESTVVTGVDIVMNHHLQETSFTKEAYKKYIKDYMKSLKGKLEEQKPERVKPFMTGAAEQIKHILANFNNYQFFIGENMNPDGMVALLDYREDGVTPFMIFFKDGLEMEKC |  | no binding
